# Results: PubChem BioAssay AID493014 (National Center for Advancing Translational Sciences (NCATS), 2011)
# The list shows a part of the results. These are further read-outs of the screen, such as a control signal, another cell line or another target. No call is given for them. Compounds called inactive in the main read-out are mostly missing here. The note in brackets gives the kind of curve behind each potency; many fits are weak.
# Experiment: qHTS Assay to Find Inhibitors of Chronic Active B-Cell Receptor Signaling
# Conditions: ABC-DLBCL IkBa-CBG/CBR reporter, luminescence ratio (green luciferase fused to IkBa over red control in TMD8 lymphoma cells), 4 h
# Method in brief: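 Concentration-response series (up to 46 uM) were applied to TMD8 dual-reporter cells for 4 h at 37C with doxycycline. Green/red ratio, after filter-overlap correction, defined %Activity; red signal alone was normalised to basal cells and zero luminescence.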
# [1] = measured here: CBR red luminescence, cell number
# [2] = measured here: IkBa-CBG green luminescence
Compound,AC50 [1],AC50 [2]
Cc1ccc(NC(=O)COc2ccccc2CNC(C)(C)CC(C)(C)C)cc1,"29.1 µM [falling, single point]",
COc1ccc(C2=NNC(c3cccs3)=Nc3ccc(OC)cc32)cc1,"0.58 µM [rising, partial curve]",
CCc1cc(=S)n2c([nH]c3ccccc32)c1C#N,"25.1 µM [falling, single point]",
CC(OC(=O)C1=Cc2ccccc2OC1)C(=O)NCc1ccco1 (configuration not stated),"5.62 µM [rising, single point]",
COc1ccc(C)cc1NC(=O)COC(=O)Cc1ccc(-c2ccccc2)cc1,"1.46 µM [falling, full curve, poor fit]",
COc1ccc(C(=O)/C(=C\c2sccc2C)c2nc3ccccc3o2)cc1,"18.4 µM [falling, partial curve, poor fit]",
CC(C)NC(=O)N(O)C1N(C(C)C)C(=O)N(Cc2ccc3c(c2)OCO3)C1(C)C (configuration not stated),"1.41 µM [rising, full curve, poor fit]",
O=C1/C(=C\c2ccco2)SC(=S)N1c1ccccc1,"2.91 µM [rising, full curve, poor fit]",
Cc1ccc(S(=O)(=O)N(C)C)cc1-n1c(SCC(=O)Nc2ccc(F)c(F)c2F)nc2ccccc2c1=O,"25.9 µM [rising, single point]",
Clc1ccc(COn2c(-c3ccc(Cl)cc3Cl)nc3ncccc32)cc1,"0.731 µM [falling, full curve, poor fit]",
Cc1nc(NC(=O)c2ccc(Br)s2)sc1C(=O)N(C)C,"29.1 µM [rising, partial curve, poor fit]",
CC1(C)CC(=O)c2cnc3nc4ccccc4n3c2C1,"3.16 µM [rising, partial curve]",
COc1ccc(OCc2nc3ccccc3[nH]2)cc1,"6.51 µM [falling, partial curve]",
O=C(NCc1cccc(CNC(=O)Nc2cccc(O)c2)c1)Nc1cccc(O)c1,"3.55 µM [rising, single point]",
CCC(C(=O)Nc1cc(C)nn1-c1nc(C)cc(C)n1)c1ccccc1 (configuration not stated),"10 µM [falling, partial curve, poor fit]",
CCN(C(=O)c1ccc(C(C)(C)C)cc1)c1nnc(Cn2nnc3ccccc32)s1,"35.5 µM [falling, single point]",
Cc1ccc(C)c(N2CCN(C(=O)CSc3ccsc3[N+](=O)[O-])CC2)c1,"0.259 µM [falling, full curve, poor fit]",
CC(C)N(C(=O)CSc1nnc(Cc2csc(Nc3ccccc3)n2)o1)C(C)C,"6.31 µM [rising, single point]",
O=C(C1CCN(S(=O)(=O)c2ccc(Cl)cc2)CC1)N1CCN(c2ccccn2)CC1,"25.9 µM [falling, partial curve]",
NS(=O)(=O)c1ccc(NCC2COc3ccccc3O2)c([N+](=O)[O-])c1 (configuration not stated),"1.12 µM [rising, full curve, poor fit]",
O=C(COC(=O)c1cccc(S(=O)(=O)NCc2ccccc2)c1)Nc1ccccc1OC(F)F,"0.731 µM [rising, full curve, poor fit]",

Compound,AC50 [1],AC50 [2]
Fc1ccc(Nc2nc(SCc3ccccc3F)nc3ccccc23)cc1,"35.5 µM [falling, single point]","14.1 µM [rising, partial curve, poor fit]"
O=C(NCC(c1ccco1)N1CCN(c2ccccc2F)CC1)c1ccco1 (configuration not stated),"32.6 µM [rising, single point]",
Cc1nnc(-c2cnn(C)c2N)n1Cc1cccc(Cl)c1,"6.51 µM [falling, single point]",
O=C(Nc1cccnc1)c1cc(-c2ccc(F)cc2)on1,"2.24 µM [falling, full curve]",
COc1ccc(CN(CC2CCC(C(=O)O)CC2)C(=S)Nc2cc(Cl)ccc2OC)cc1 (configuration not stated),,"12.6 µM [rising, partial curve, poor fit]"
COC(=O)c1cnn2c1C(=O)N(Cc1cccs1)CC2,"0.282 µM [falling, full curve, poor fit]",
COc1ccccc1-c1nnc2sc(-c3ccc(N(C)C)cc3)nn12,"2.06 µM [rising, full curve]","1.84 µM [falling, full curve]"
CC(C)C(=O)N1CCN(c2ccccc2NC(=O)COc2ccccc2)CC1,"25.1 µM [falling, single point]",
O=C(Nc1ccon1)c1nc[nH]c1C(=O)NCc1ccccc1,"0.058 µM [falling, full curve, poor fit]",
CCn1cc(CCC(=O)NCCN2CCOCC2)c2ccccc21,"12.6 µM [rising, partial curve, poor fit]",
O=c1[nH]nc(SCCS(=O)(=O)c2ccc(F)cc2)n1-c1ccccc1,"10 µM [falling, partial curve]",
O=C(NCCc1ccccc1)C(=O)NCC1OCCN1S(=O)(=O)c1ccc(Cl)cc1 (configuration not stated),"3.55 µM [rising, single point]",
Cc1csc(SCC(=O)Nc2nc3ccccc3s2)n1,"18.4 µM [falling, partial curve, poor fit]",
Cc1cc(N2CCN(C)CC2)n2nc(-c3ccc(Cl)cc3)nc2n1,"0.891 µM [rising, partial curve, poor fit]",
C/C(=N/NC(N)=S)c1cc2ccc(O)cc2oc1=O,"6.31 µM [falling, single point]",
COc1ccc(-c2noc(CCC(=O)Nc3nc4ccccc4s3)n2)cc1,"32.6 µM [falling, single point]",
Cc1cc(NC(=O)CSc2cn(CCNC(=O)c3ccccc3)c3ccccc23)no1,"0.58 µM [falling, partial curve, poor fit]",
CCn1c(=O)c([N+](=O)[O-])c(NCc2ccco2)c2ccccc21,"7.08 µM [falling, partial curve, poor fit]",
CC(=O)N1CCC(N(CCN2CCOCC2)C(=S)Nc2cccc(C)c2C)CC1,"20.6 µM [falling, partial curve]",
O=C(NNc1cccc(Cl)n1)C(F)(F)F,"35.5 µM [falling, single point]",
Cc1ccc(C(C[N+](=O)[O-])c2c(-c3ccccc3O)[nH][nH]c2=O)cc1 (configuration not stated),"14.6 µM [falling, partial curve]","29.1 µM [falling, single point]"

# Copied from the list.
# In AC50 [1], `O=c1[nH]nc(SCCS(=O)(=O)c2ccc(F)cc2)n1-c1ccccc1` reads 10 µM [falling, partial curve]
# In AC50 [1], `COc1ccccc1-c1nnc2sc(-c3ccc(N(C)C)cc3)nn12` reads 2.06 µM [rising, full curve]
# In AC50 [1], `Fc1ccc(Nc2nc(SCc3ccccc3F)nc3ccccc23)cc1` reads 35.5 µM [falling, single point]
# In AC50 [1], `O=C(Nc1ccon1)c1nc[nH]c1C(=O)NCc1ccccc1` reads 0.058 µM [falling, full curve, poor fit]

# Continuation.

Compound,AC50 [1],AC50 [2]
COc1ccc2nc(NC(=O)[C@@H]3CCCN3C(=O)c3cccs3)sc2c1,,"16.4 µM [rising, partial curve, poor fit]"
CC(C)Cc1ccc(C(C)C(=N)N)cc1 (configuration not stated),"14.1 µM [falling, partial curve, poor fit]",
CCOC(=O)CNC(=O)C1(/C=C/c2ccccc2)CC(=O)N1c1ccc(C)cc1 (configuration not stated),"35.5 µM [rising, single point]",
CCOc1ccc(C(=O)CCC(=O)N2CCN(c3ncccn3)CC2)cc1,"7.08 µM [rising, full curve]",
O=C(CSC1=NCCS1)Nc1ccnc2ccccc12,"7.31 µM [falling, partial curve, poor fit]",
COc1ccc(CCNC(=O)C2CCCN(Cc3nc(-c4ccccc4C)oc3C)C2)cc1OC (configuration not stated),"35.5 µM [falling, single point]",
CC(C)C(=O)N1CCC2(CC1)Oc1ccc(F)cc1C(=O)C21CC(c2ccccc2)=NO1 (configuration not stated),"35.5 µM [falling, single point]",
Cc1ccc[n+](/C(C(=S)NCc2ccco2)=C(/[O-])c2ccccc2Cl)c1,"0.58 µM [rising, partial curve]",
COc1ccc(CCNC(=O)c2oc(=O)c3ccccc3c2-c2ccccc2)cc1OC,"3.55 µM [rising, full curve]",
C1=C(N2CCOCC2)/C(=C/c2nc3ccccc3[nH]2)CC1,"8.91 µM [falling, partial curve]",
O=C(Nc1ccc(Cl)c(Cl)c1)Nc1ccc(N2CCCC2)c(S(=O)(=O)Nc2ccccc2Cl)c1,"23.1 µM [falling, single point]",
Cc1ocnc1C(=O)Nc1ccc(Cl)cc1,"11.2 µM [falling, single point]",
COc1ccc(CCNC(=O)c2cc3c(=O)n4ccccc4nc3n(C3CCCCC3)c2=N)cc1OC,"5.01 µM [rising, partial curve, poor fit]",
O=C(CSc1nncc2ccccc12)Nc1ccccc1,"31.6 µM [falling, single point]",
Cc1nn(-c2ccccc2)c(Cl)c1C(=O)OCC(=O)NCCc1ccc(S(N)(=O)=O)cc1,"29.1 µM [falling, single point]",
O=C(COc1cc(Cl)c(Cl)cc1Cl)Nc1cccc(O)c1,"0.891 µM [rising, full curve, poor fit]",
Cc1ccc(-c2c(C#N)c(N)nc3c2CCCCC3)cc1,"6.51 µM [rising, single point]",
Cc1ccc(S(=O)(=O)Nc2nc(C)cc(-n3nc(C)cc3C)n2)cc1,"23.1 µM [falling, single point]",
COc1ccc(-c2cc3n(n2)CCc2nc4ccccc4n2-3)cc1,"2.06 µM [falling, partial curve]",
C=CCOc1c(Cl)cc(CNCCC)cc1Cl,"18.4 µM [rising, single point]",
Cc1ccc(C(=O)/C=C/C(=O)O)cc1,"29.1 µM [falling, single point]","25.9 µM [rising, single point]"
